In the supplement of paper PMC3334620:
Over roughly 33,000 sequences, “E-score (-0.5 to 0.5)” has its median near -0.015; the highest 2% begin near 0.3. This is one part of the list.

These sequences were tested against T1, Abf1 (UniProt P14164) (assay: PBM E-score (8-mer binding enrichment) (E-score (-0.5 to 0.5)); higher = stronger / more preferred TF binding). Details: protein concentration: 200 nM; construct: GST-full length.
T1 sequence: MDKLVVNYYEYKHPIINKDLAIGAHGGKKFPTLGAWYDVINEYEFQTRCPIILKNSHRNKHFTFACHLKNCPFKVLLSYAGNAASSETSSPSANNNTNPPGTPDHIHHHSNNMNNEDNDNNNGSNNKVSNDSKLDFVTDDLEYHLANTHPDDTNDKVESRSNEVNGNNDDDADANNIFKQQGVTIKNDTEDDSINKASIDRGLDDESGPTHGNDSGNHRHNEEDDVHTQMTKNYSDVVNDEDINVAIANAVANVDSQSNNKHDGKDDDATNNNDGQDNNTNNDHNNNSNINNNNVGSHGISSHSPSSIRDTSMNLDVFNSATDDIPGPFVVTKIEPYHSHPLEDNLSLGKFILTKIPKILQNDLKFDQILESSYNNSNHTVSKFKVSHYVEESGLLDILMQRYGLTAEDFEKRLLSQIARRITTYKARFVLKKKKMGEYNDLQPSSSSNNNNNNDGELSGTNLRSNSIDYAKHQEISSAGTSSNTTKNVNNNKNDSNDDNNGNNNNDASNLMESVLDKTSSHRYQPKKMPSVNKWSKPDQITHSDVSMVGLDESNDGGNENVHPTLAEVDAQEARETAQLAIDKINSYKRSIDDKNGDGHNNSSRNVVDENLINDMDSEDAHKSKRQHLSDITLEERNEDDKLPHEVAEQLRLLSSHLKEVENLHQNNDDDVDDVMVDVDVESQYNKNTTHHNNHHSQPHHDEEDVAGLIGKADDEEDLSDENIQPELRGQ
Description: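 Universal 'all 10-mer' protein binding microarrays (Agilent AMADID 015681) probed with GST-tagged S. cerevisiae TFs (full-length or DBD) made by in vitro transcription/translation (PURExpress), about 100-200 nM. Bound TF was detected with fluorescent anti-GST. Each ungapped 8-mer (which stands for itself and its reverse complement) is scored by the PBM enrichment score (E-score), a modified Wilcoxon-Mann-Whitney statistic from -0.5 to +0.5, computed with the Universal PBM Analysis Suite. Scale: above 0.35 generally sequence-specific binding.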

Row | Sequence | PBM E-score
1 | GAATCCGC | -0.248
2 | TAACATCA | 0.29
3 | ACCCAGGG | -0.318
4 | ACGTGAGC | -0.173
5 | AGACCGTG | 0.0697
6 | GCCTACAC | -0.192
7 | CTGCGGGA | -0.201
8 | ATTCGTGG | 0.296
9 | GCATCGAA | -0.0438
10 | AATCTACT | -0.024
11 | AGCTCGCC | 0.0319
12 | GTCTTGCA | -0.00339
13 | GCATCACA | 0.0163
14 | AACACCGA | -0.359
15 | AAGGGGTA | -0.211
16 | AGGTGCAT | -0.124
17 | CAGCTGTC | -0.0435
18 | GCTACCAC | -0.122
19 | TGCGTGAA | 0.112
20 | CGAAACAG | 0.0245
21 | AACTCTCC | -0.124
22 | AGACATGC | -0.118
23 | CGAGTCAA | -0.0144
24 | CGGCGCCG | 0.0376
25 | TAAACTCA | -0.0231

Row | Sequence | PBM E-score
26 | AGCCACAC | -0.0651
27 | AAACTCAT | -0.145
28 | CGCAGATC | -0.0524
29 | CGACTACG | 0.124
30 | CTGATACA | 0.0567
31 | CATGAGCA | -0.118
32 | AAGTCTCC | 0.0627
33 | CAATTGTG | -0.121
34 | ATACCGTC | 0.213
35 | CTAGACTC | -0.358
36 | ATGCATGA | 0.071
37 | AAGCCTAA | 0.0733
38 | AGAGGTAG | -0.274
39 | TATAAAAA | 0.224
40 | CAATGAGC | -0.0647
41 | AAGTCATT | 0.24
42 | CGAGCCCA | -0.11
43 | AGTCGCCC | -0.324
44 | ACCGCTAC | -0.135
45 | CGGCGTCC | -0.0213
46 | CGCTATGA | 0.0621
47 | ATGCTAGG | -0.222
48 | AGTCGGAT | 0.136
49 | GTAAAACA | -0.137
50 | AGTAGTTA | -0.0177

Row | Sequence | PBM E-score
51 | CTCGAGAA | -0.0621
52 | CGGCATCA | 0.0544
53 | GCTGGTAA | -0.0518
54 | CTTGAAGA | -0.0824
55 | ACAGCTTA | 0.0356
56 | ATAAGGAT | -0.00817
57 | CGTAATGA | 0.192
58 | TAATATGA | 0.261
59 | CGAGGGTA | -0.246
60 | ACTATACA | 0.0355
61 | TGATCCAA | 0.0142
62 | AATGACGT | 0.125
63 | CATCCGCG | 0.0531
64 | ATAGCTAT | 0.0215
65 | AAGTACTA | 0.18
66 | AAGTGGCC | -0.235
67 | ATTGCGTA | 0.0994
68 | TCCTTAAA | -0.00311
69 | CTGCTCCC | -0.106
70 | AGTACCCA | -0.149
71 | CACCCTCA | -0.055
72 | AAAAGCTA | -0.055
73 | ATAAAGTA | 0.207
74 | AAGTCTTG | -0.0508
75 | CGGGGCTA | -0.127

Row | Sequence | PBM E-score
76 | CTTTACTC | 0.0152
77 | ACGCCCGG | -0.0761
78 | GGGTTTTA | -0.0154
79 | ATGTTACG | 0.087
80 | ACTCGCAA | 0.151
81 | CAGCCTCC | -0.349
82 | AGAGGAAG | -0.206
83 | CTCCAAGC | -0.119
84 | GGGCGCGA | 0.0618
85 | CATACATG | -0.0971
86 | AGCCCCGG | -0.277
87 | GGCCTCAA | 0.0563
88 | CCCGCGGC | -0.132
89 | CCCTCAGC | 0.00371
90 | AAATCACG | 0.284
91 | AAACCTGG | -0.118
92 | CACGAGCA | 0.0916
93 | CGTGAGAC | 0.2
94 | GATCAACA | 0.0153
95 | AATCTCGG | -0.0608
96 | ATCCGCGC | -0.119
97 | TCCGCAGA | 0.0445
98 | CAGATGAC | 0.058
99 | ACAACAGT | -0.0472
100 | AACGGCAT | 0.226

Row | Sequence | PBM E-score
101 | CTCAGCGC | 0.0424
102 | GACTTACC | -0.249
103 | GGGGGGTA | -0.355
104 | AACAATTG | -0.0299
105 | ACTCAAAC | 0.106
106 | GGCCCCCA | -0.332
107 | CTACTAGC | 0.13
108 | ACGACCCC | -0.226
109 | GACGCTAC | 0.0935
110 | ACGGAAAG | 0.184
111 | GATGCTGA | -0.123
112 | CCAACACG | 0.0481
113 | GCCTGTCC | -0.144
114 | CGGACGAG | 0.191
115 | AATGAATA | 0.0115
116 | GTACCGCA | 0.0867
117 | ACTAACCT | 0.155
118 | CTTACCAA | -0.0633
119 | CTATACCC | -0.104
120 | TGTCACAA | 0.225
121 | CACCTAGC | -0.132
122 | GTGATATA | 0.395
123 | ACTGAGTC | -0.0716
124 | ATGAAGCC | 0.0793
125 | TCTTCACA | 0.162

Row | Sequence | PBM E-score
126 | CGCACAAC | -0.0584
127 | ATCTCCGA | 0.124
128 | ATCCCGGG | -0.0967
129 | CCGAGTAG | -0.188
130 | CAGCTGAA | -0.0697
131 | AGGAATTG | 0.0611
132 | GGCCGCGA | -0.174
133 | GAAGCGTA | -0.0943
134 | CGGTTATA | -0.00597
135 | CTGCCCGC | -0.0714
136 | GCACGGGA | 0.0185
137 | GACCTTTA | 0.0335
138 | AATCTATC | 0.0351
139 | AACTGGAT | 0.0313
140 | ACTGAGGC | -0.112
141 | CTTATCCC | -0.0767
142 | CGTCGGGC | -0.072
143 | GAACTAAC | 0.11
144 | CAGTGCCC | 0.00351
145 | AATACTCC | -0.0811
146 | ATCCATCA | -0.0425
147 | GGTCAGAC | -0.0844
148 | GCCTCTAA | -0.0508
149 | CGATAACC | -0.00449
150 | CCTTTCCA | -0.0408

Row | Sequence | PBM E-score
151 | ATTTTGTC | 0.172
152 | GGCGAGAC | -0.0463
153 | ACGCTAAA | 0.137
154 | ACCTTCAT | -0.0336
155 | GGCCATCA | -0.255
156 | GATCTGAA | 0.0479
157 | CAGTCGAA | -0.0758
158 | AAGTTATT | 0.0165
159 | CCTTTACG | 0.0646
160 | AATGGAAT | -0.0193
161 | CTGAAGCC | -0.125
162 | GATGTCTA | 0.213
163 | CCTAGGAA | -0.123
164 | ATAAAGTG | 0.18
165 | ATAGTTTC | 0.196
166 | CAATGTGG | -0.0134
167 | ACTAGATA | 0.0976
168 | CAGTACGC | 0.0181
169 | CTGACTCA | -0.0203
170 | ACGTCGCG | 0.23
171 | GTCATAAA | 0.195
172 | GACGATCA | 0.226
